Measurements reported in PubChem BioAssay AID1259424 (University of Nebraska Medical Center, 2018)

Test: 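Find knockdowns that reproduce the expression shifts seen after KSR1 loss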 (primary screen)
Cell system: human HCT116 colon cancer cells
Reagent: siRNA pool against human genes, 50 nM
Measurement: 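Log2 levels of six mRNAs (branched-DNA multiplex), adjusted by two reference genes and the non-targeting median, then scored against the average KSR1 knockdown pattern as Pearson r and euclidean distance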
Reading the numbers: mean correlation with KSR1 profile: higher = expression change more like KSR1 knockdown
This is one part, drawn at random, of about 14,000 deposited reagents. 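Higher correlation or smaller distance means closer resemblance to KSR1 loss; control wells, including KSR1 knockdowns, recur on many plates.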 Not all columns of the deposit are shown. The record does not give: the time to read-out.

SLC9D1 — mean correlation with KSR1 profile: -0.327
PMS2P2 — mean correlation with KSR1 profile: -0.546
GPATCH1 (G-patch domain containing 1) — mean correlation with KSR1 profile: 0.0241
SRCIN1 (SRC kinase signaling inhibitor 1) — mean correlation with KSR1 profile: 0.305
ALDH3B2 (aldehyde dehydrogenase 3 family member B2) — mean correlation with KSR1 profile: 0.225
ZNF703 (zinc finger protein 703) — mean correlation with KSR1 profile: -0.386
CREB5 (cAMP responsive element binding protein 5) — mean correlation with KSR1 profile: -0.204
CALCA (calcitonin related polypeptide alpha) — mean correlation with KSR1 profile: 0.467
UGT1A3 (UDP glucuronosyltransferase family 1 member A3) — mean correlation with KSR1 profile: 0.845
RAB5IF (RAB5 interacting factor) — mean correlation with KSR1 profile: -0.553
C5orf15 (chromosome 5 open reading frame 15) — mean correlation with KSR1 profile: -0.281
RIPK4 (receptor interacting serine/threonine kinase 4) — mean correlation with KSR1 profile: 0.375
SOCS3 (suppressor of cytokine signaling 3) — mean correlation with KSR1 profile: -0.234
IL5 (interleukin 5) — mean correlation with KSR1 profile: 0.624
ALPK2 (alpha kinase 2) — mean correlation with KSR1 profile: 0.0297
PRPF38A (pre-mRNA processing factor 38A) — mean correlation with KSR1 profile: 0.683
CA9 (carbonic anhydrase 9) — mean correlation with KSR1 profile: -0.398
HSAJ2425 (retired record) — mean correlation with KSR1 profile: 0.242
TMEM209 (transmembrane protein 209) — mean correlation with KSR1 profile: 0.75
GCH1 (GTP cyclohydrolase 1) — mean correlation with KSR1 profile: 0.363
RASL11B (RAS like family 11 member B) — mean correlation with KSR1 profile: 0.889
B3GNT5 — mean correlation with KSR1 profile: 0.332
URI1 (URI1 prefoldin like chaperone) — mean correlation with KSR1 profile: -0.519
IL11 (interleukin 11) — mean correlation with KSR1 profile: 0.171
VCX2 (variable charge X-linked 2) — mean correlation with KSR1 profile: -0.194
ZCRB1 (zinc finger CCHC-type and RNA binding motif containing 1) — mean correlation with KSR1 profile: 0.454
NDUFS3 (NADH:ubiquinone oxidoreductase core subunit S3) — mean correlation with KSR1 profile: -0.574
ARIH1 (ariadne RBR E3 ubiquitin protein ligase 1) — mean correlation with KSR1 profile: -0.31

Reformatted: 4 of the entries above
{"Gene": "CALCA (calcitonin related polypeptide alpha)", "mean correlation with KSR1 profile": 0.467}
{"Gene": "UGT1A3 (UDP glucuronosyltransferase family 1 member A3)", "mean correlation with KSR1 profile": 0.845}
{"Gene": "RAB5IF (RAB5 interacting factor)", "mean correlation with KSR1 profile": -0.553}
{"Gene": "C5orf15 (chromosome 5 open reading frame 15)", "mean correlation with KSR1 profile": -0.281}
